Laboratory results taken from patent publication US20080096967A1, “Formulations for Injection of Catecholic Butanes, Including Ndga Compounds, Into Animals” (priority 2005, published 2008).
This continues a long series; more values of the same kind are listed elsewhere.

Assays:
[1] = M4N solubility in water miscible organic solvents up to 48 hours (RP-HPLC); assay type: physicochemical
Protocol: To prepare M4N samples, 200 μL of 100 mg/mL M4N dissolved in acetone were placed in 1.5 mL polypropylene microtubes. The solvent was allowed to evaporate at room temperature for 48 hours until the samples were completely dry.
The water miscible organic solvent formulations were prepared in 15 mL polypropylene centrifuge tubes. 10 mL of each formulation was prepared. Each solvent was added on the basis of weight using its respective density at 25° C. Following brief mixing, each formulation was filtered through a 0.45 μm surfactant free cellulose acetate (“SFCA”) filter into a fresh 15 mL tube. Formulations were kept at room temperature until ready for use.
At each time point, the samples were centrifuged for 2 minutes at 13,000 rpm to pellet any solid M4N. As noted in Table 25, over half of the formulation conditions examined were able to solubilize M4N to a concentration of greater than 10 mg/Ml.

[2] = M4N stability in 11-14 mg/mL PEG300/HP-β-CD solutions at room temperature (RP-HPLC); assay type: physicochemical; settings: 24 hour incubation at room temperature, regardless of target M4N or formulation
Protocol: To support manufacturing specifications, this study examined the 24-hour room temperature stability of combinations of PEG300/HP-β-CD at varying M4N target concentrations. Stock samples of M4N stocks were prepared in 100% PEG 300 at drug concentrations of 33-56 mg/mL at 60° C. as follows.
M4N bulk drug was solubilized to concentrations of 33, 44, 48, 52, 55 and 56 mg/mL (w/w) in PEG 300 using the procedure set forth in Examples 13 and 16, following incubation of at least 2 hours at 60° C. Vigorous vortexing and mixing were necessary for complete solubilization of M4N above 44 mg/mL. The M4N stock solutions were filtered through a 0.45 μm SFCA filter and used within 30 minutes of preparation. Separately, a solution of 40% (w/v) HP-β-CD was prepared in sterile WFI and filtered. Combinations of the 40% HP-β-CD stock and the M4N/PEG 300 stocks were combined in 1.5 mL polypropylene microtubes.
The requisite amount of M4N stock was added to 40% HP-β-CD to yield the final concentrations of drug and excipients listed in Table 28. Samples were gently rotated (˜12 rpm) at room temperature. At 2 and 24 hours of incubation, samples were centrifuged 2 minutes at 13,000 rpm and 50 μL aliquots were removed for RP-HPLC analysis.

COc1ccc(C[C@@H](C)[C@@H](C)Cc2ccc(OC)c(OC)c2)cc1OC [Formulation M4N, meso-1,4-bis(3,4-dimethoxyphenyl)-2,3-dimethylbutane]
M4N solubility ([1]; 100% PEG300, 2 hrs at room temperature): 5810 µg/mL | M4N solubility ([1]; 100% PEG300, 24 hrs at room temperature): 10370 µg/mL | M4N solubility ([1]; 100% PEG300, 48 hrs at room temperature): 11520 µg/mL | M4N solubility ([1]; 100% PG, 2 hrs at room temperature): 1100 µg/mL | M4N solubility ([1]; 100% PG, 24 hrs at room temperature): 1330 µg/mL | M4N solubility ([1]; 100% PG, 48 hrs at room temperature): 1760 µg/mL | changes in solubility [2]: little if any changes
